A weaker result is weaker than the reference pair of the same experiment. For part of these data: The exact form of at least one protein or probe is not confirmed.
What was measured:
[1] = target: BhNiaR (Bacillus halodurans) (UniProt Q9KDJ7); test: EMSA; conditions: no niacin, Zn2+-bound protein; EMSA: 20 mM Tris pH 8.0, 100 mM KCl, 1 mM MgCl2, 1 mM DTT, 5% glycerol, +/- 1 mM niacin; 80 nM DNA, 0-3 µM protein; recombinant protein; residues 1-179; label: none (SYBR Green stain)
[2] = target: BhNiaR H152A (Bacillus halodurans) (UniProt Q9KDJ7); test: EMSA; conditions: metal-free mutant, severe defect, EMSA: 20 mM Tris pH 8.0, 100 mM KCl, 1 mM MgCl2, 1 mM DTT, 5% glycerol, 80 nM DNA, 0-3 µM protein, recombinant protein

Measured: binding result

CTCATTTACATATGTCTTGACATCTATATTTACA (double strand) [nifS-nadB promoter 34-bp cognate DNA (type I)]
binds more weakly: [1] | [2]; 1 mM niacin, residues 1-179, label: none (SYBR Green stain) | [2]; no niacin, +/- 1 mM niacin, residues 1-179, label: none (SYBR Green stain)

Source: paper PMC7713382, “Structural analysis and insight into effector binding of the niacin-responsive repressor NiaR from Bacillus halodurans” (Scientific Reports, 2020)
